Compound in the experiment: CC1Cc2ccccc2N1C(=O)C1CCCN(C1)C(=O)CCl (mixture of isomers) [TRIM25 ligand 11 (diastereomer mixture)]
Put plainly: probe-labelled cysteine peptide fold change vs DMSO (competition) (log2 fold change); higher = less target engagement (more negative = stronger competition). The note with it: THP-1, incubation time: 4 h.

Chains of the proteins cited; added tags and fusions are not shown. Lines headed by an entry give the natural chain unless they say otherwise; changes in a name come on top.
UniProt P46734: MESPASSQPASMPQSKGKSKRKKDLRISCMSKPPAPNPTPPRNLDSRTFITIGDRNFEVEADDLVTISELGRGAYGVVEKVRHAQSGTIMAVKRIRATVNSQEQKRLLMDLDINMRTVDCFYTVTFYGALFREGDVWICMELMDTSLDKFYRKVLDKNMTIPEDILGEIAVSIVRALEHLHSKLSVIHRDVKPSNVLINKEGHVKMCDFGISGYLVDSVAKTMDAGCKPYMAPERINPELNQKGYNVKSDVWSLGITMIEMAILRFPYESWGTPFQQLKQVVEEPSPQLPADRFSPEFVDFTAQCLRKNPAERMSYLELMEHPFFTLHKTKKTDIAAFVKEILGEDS
UniProt Q16539, whole entry, looked up: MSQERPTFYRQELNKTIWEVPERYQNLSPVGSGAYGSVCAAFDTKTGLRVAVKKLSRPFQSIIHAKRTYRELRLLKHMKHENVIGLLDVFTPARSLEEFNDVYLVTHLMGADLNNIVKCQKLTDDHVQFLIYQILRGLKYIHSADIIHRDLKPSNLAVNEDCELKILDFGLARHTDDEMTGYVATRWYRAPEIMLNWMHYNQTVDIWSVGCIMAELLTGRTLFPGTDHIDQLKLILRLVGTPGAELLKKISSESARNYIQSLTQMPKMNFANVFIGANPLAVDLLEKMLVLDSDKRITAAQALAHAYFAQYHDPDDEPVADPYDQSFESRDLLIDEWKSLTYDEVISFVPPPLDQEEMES
UniProt Q9Y2E5: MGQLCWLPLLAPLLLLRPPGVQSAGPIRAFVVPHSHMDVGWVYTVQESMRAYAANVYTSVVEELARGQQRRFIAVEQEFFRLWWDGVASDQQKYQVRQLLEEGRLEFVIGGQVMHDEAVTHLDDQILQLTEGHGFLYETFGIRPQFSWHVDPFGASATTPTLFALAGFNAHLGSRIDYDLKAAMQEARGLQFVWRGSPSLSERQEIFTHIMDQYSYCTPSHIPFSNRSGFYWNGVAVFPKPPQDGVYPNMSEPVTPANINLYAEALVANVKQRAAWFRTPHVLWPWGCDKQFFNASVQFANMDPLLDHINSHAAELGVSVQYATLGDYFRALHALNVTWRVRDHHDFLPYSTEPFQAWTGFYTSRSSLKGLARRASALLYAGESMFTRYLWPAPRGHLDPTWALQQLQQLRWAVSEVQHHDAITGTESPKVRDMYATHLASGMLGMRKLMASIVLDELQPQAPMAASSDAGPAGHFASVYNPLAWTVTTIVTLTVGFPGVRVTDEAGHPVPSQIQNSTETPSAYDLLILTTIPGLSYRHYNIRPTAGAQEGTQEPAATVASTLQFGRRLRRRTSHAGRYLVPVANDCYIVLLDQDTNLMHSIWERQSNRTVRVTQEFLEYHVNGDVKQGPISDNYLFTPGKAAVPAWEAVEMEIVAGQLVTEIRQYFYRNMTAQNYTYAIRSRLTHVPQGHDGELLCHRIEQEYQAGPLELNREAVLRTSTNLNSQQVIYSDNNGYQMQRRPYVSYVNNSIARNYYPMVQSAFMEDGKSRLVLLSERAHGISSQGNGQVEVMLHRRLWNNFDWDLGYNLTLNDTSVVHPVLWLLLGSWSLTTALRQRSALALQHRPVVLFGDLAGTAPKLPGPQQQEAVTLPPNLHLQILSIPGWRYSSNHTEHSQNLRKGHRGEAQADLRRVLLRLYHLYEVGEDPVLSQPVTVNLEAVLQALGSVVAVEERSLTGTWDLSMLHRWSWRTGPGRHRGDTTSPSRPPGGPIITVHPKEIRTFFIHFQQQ
UniProt Q9H0U3: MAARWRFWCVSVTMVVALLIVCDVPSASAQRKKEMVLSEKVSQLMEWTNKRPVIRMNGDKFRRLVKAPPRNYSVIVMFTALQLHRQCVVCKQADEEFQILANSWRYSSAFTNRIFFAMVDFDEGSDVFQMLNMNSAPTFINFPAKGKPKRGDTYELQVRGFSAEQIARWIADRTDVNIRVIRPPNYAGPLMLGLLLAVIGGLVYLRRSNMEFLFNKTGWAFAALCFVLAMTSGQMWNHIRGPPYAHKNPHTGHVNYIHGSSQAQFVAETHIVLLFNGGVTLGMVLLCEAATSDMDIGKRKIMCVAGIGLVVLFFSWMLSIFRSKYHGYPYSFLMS
UniProt Q3KQU3: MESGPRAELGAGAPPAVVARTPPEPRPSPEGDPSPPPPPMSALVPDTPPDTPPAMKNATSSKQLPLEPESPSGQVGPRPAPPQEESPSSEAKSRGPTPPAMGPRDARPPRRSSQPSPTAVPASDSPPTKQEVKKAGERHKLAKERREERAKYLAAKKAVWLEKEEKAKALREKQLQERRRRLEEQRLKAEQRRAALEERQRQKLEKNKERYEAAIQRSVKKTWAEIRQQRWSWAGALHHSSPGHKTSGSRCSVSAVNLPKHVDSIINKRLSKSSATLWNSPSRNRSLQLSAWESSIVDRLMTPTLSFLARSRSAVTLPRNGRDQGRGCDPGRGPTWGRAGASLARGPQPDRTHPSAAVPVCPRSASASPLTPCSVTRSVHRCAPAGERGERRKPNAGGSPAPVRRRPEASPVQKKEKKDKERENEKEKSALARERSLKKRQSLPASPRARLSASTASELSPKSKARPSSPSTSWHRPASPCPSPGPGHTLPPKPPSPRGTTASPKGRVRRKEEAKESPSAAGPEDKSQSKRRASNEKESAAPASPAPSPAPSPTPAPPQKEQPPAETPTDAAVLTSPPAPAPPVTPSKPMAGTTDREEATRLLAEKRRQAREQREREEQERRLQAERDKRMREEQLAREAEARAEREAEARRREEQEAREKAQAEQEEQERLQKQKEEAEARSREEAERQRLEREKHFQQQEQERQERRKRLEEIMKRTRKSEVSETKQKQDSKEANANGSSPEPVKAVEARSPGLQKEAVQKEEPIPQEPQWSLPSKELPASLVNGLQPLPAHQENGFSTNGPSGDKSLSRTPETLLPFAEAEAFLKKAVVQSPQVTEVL
UniProt Q9NQ29: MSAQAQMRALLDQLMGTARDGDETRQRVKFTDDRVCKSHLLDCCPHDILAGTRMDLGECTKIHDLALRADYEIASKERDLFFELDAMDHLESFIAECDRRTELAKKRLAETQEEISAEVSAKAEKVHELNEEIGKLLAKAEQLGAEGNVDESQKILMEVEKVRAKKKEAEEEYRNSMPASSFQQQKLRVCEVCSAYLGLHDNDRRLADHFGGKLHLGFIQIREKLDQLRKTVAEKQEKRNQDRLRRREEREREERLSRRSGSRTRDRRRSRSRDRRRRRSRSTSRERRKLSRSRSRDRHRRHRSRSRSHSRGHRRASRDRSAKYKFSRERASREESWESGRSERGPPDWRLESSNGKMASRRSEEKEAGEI
UniProt Q9UIS9: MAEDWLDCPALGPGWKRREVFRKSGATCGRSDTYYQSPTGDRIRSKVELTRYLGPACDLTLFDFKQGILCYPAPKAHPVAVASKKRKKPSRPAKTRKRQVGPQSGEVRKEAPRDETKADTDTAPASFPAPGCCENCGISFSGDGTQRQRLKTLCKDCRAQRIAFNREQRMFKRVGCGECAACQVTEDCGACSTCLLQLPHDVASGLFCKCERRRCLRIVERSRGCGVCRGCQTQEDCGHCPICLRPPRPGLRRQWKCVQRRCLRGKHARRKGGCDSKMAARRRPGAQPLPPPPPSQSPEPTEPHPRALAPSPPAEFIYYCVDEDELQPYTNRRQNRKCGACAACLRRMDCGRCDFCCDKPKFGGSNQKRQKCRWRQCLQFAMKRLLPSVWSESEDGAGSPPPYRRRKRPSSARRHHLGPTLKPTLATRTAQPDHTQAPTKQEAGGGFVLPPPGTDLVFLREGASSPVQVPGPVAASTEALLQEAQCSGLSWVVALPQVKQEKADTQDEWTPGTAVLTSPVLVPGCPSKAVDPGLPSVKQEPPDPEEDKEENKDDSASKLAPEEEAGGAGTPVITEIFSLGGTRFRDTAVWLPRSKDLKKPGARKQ
UniProt Q5TCQ9: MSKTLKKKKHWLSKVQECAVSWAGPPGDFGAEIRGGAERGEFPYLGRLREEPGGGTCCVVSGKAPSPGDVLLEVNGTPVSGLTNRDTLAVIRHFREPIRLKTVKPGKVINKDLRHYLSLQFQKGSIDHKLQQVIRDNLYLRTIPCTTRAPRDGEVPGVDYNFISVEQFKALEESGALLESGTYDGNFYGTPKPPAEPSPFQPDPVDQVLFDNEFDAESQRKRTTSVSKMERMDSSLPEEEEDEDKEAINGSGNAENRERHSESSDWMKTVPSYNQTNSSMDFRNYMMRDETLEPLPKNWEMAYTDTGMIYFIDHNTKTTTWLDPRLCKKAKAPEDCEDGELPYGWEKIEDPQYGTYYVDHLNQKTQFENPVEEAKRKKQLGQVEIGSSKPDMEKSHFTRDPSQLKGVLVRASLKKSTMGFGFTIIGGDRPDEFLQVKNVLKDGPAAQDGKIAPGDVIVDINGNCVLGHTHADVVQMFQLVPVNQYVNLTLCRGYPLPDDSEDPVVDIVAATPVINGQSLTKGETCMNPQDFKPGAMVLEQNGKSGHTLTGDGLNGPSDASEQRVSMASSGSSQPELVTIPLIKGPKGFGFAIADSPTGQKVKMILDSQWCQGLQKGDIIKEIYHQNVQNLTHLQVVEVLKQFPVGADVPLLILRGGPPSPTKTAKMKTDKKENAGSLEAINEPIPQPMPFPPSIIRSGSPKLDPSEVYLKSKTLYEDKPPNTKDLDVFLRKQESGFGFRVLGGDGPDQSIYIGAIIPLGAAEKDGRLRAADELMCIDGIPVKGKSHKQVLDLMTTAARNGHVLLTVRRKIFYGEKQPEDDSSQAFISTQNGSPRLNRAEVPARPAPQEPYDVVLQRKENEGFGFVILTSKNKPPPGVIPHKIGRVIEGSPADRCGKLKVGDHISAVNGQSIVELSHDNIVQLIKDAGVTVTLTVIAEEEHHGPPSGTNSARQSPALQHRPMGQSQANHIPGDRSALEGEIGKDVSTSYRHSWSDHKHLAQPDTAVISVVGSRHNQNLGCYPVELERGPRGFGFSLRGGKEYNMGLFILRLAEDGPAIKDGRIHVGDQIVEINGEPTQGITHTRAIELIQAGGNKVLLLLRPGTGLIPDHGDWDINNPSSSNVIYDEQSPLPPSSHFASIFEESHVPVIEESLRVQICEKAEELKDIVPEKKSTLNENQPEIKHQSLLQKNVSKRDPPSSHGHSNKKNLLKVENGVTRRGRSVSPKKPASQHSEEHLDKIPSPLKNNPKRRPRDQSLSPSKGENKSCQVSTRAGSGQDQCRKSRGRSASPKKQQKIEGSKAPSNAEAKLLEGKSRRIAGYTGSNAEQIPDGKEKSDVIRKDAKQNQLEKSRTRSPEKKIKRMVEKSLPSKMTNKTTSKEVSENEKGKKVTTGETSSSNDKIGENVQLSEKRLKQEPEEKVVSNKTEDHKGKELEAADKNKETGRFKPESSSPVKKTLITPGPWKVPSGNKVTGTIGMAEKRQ
UniProt P45985: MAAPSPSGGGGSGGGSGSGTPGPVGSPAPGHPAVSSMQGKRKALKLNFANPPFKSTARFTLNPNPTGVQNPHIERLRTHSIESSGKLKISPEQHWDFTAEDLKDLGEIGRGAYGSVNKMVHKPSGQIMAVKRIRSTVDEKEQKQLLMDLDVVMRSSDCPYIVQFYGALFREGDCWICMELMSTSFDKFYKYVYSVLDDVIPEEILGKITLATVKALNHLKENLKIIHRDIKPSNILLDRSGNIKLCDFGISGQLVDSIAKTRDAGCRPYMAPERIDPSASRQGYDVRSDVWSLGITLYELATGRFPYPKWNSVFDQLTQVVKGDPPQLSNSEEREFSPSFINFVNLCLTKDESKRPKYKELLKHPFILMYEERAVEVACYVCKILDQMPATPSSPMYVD
UniProt P20645: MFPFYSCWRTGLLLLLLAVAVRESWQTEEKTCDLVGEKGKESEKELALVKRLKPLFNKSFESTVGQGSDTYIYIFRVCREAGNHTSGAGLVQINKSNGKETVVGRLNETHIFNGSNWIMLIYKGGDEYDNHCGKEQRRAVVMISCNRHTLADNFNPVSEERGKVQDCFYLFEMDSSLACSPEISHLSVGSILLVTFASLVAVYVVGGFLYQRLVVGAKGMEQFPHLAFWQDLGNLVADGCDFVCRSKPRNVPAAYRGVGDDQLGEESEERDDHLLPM

This is one part of the list.

Data on 35 targets can be found in the supplement of paper PMC12067093, “Discovery and optimisation of a covalent ligand for TRIM25 and its application to targeted protein ubiquitination” (Chemical Science, 2025).
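Note: competitive chemoproteomic profiling in live THP-1 cells with an iodoacetamide desthiobiotin (IA-DTB) probe, comparing probe-labelled peptide intensities in compound-treated cells against DMSO-treated controls.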

With “MAP2K3_P46734_305_FSPEFVDFTAQCLR (UniProt P46734)”, the “probe-labelled cysteine peptide fold change” value was -0.0475 (10 µM) and 0.0563 (50 µM).
As to “MAPK14_Q16539_162_PSNLAVNEDCELK (UniProt Q16539)”, the “probe-labelled cysteine peptide fold change” value worked out at 0.251 (10 µM) and 0.283 (50 µM).
For the target “MAPK7_Q13164_359_YHDPDDEPDCAPPFDFAFDREALTR (UniProt Q13164)”, the “probe-labelled cysteine peptide fold change” value was -0.0308 (10 µM) and -0.118 (50 µM).
As for “LY75_O60449_1060_IPENFFEEESRYHCALILNLQK (UniProt O60449)”, the “probe-labelled cysteine peptide fold change” value was -0.284 (10 µM) and -0.227 (50 µM).
“MBLAC2_Q68D91_212_ISDYVGTCER (UniProt Q68D91)”: the “probe-labelled cysteine peptide fold change” value (10 µM) is -0.0849 and the “probe-labelled cysteine peptide fold change” value (50 µM) came out at 0.0369.
Regarding “LTN1_O94822_595_KKPLEDLVCK (UniProt O94822)”, the “probe-labelled cysteine peptide fold change” value reads like this: (10 µM) 0.016; (50 µM) 0.0662.
“MAP4K1_Q92918_335_SSSLGIPDADCCR (UniProt Q92918)”: the “probe-labelled cysteine peptide fold change” value was -0.191 (10 µM) and -0.167 (50 µM).
For “LY75_O60449_1422_VTWYEALNMCSQSGGHLASVHNQNGQLFLEDIVKR (UniProt O60449)”, in that order: 0.213 and 0.119.
The corresponding values for “MAN2C1_Q9NTJ4_584_LLLLNQFHDVVTGSCIQMVAEEAMCHYEDIR (UniProt Q9NTJ4)” are 0.262 and 0.174.
In the case of “MAPK1_P28482_40_YTNLSYIGEGAYGMVCSAYDNVNK (UniProt P28482)”, the “probe-labelled cysteine peptide fold change” value is 0.0245 (10 µM) and -0.0417 (50 µM).
On to “LYPLA1_O75608_173_DISILQCHGDCDPLVPLMFGSLTVEK (UniProt O75608)”, for which the “probe-labelled cysteine peptide fold change” value (10 µM) was -0.358 and the “probe-labelled cysteine peptide fold change” value (50 µM) came to 0.0477.
Consider “MAN2B2_Q9Y2E5_288_TPHVLWPWGCDK (UniProt Q9Y2E5)”, for which the “probe-labelled cysteine peptide fold change” value stood at 0.0845 (10 µM) and 0.0207 (50 µM).
Take “MAP3K20_Q9NYL2_231_LTIPSSCPR (UniProt Q9NYL2)”: the “probe-labelled cysteine peptide fold change” value was -0.0691 (10 µM) and 0.0125 (50 µM).
With “LYAR_Q9NX58_6_VFFTCNACGESVKK (UniProt Q9NX58)”, the “probe-labelled cysteine peptide fold change” value (10 µM) is -0.137 and the “probe-labelled cysteine peptide fold change” value (50 µM) is -0.0907.
The corresponding values for MAGT1_Q9H0U3_90_QCVVCK (UniProt Q9H0U3) are 0.0352 and -0.0544.
MAF1_Q9H063_34_IESYSCK (UniProt Q9H063): the “probe-labelled cysteine peptide fold change” value (10 µM) came out at 0.0118 and the “probe-labelled cysteine peptide fold change” value (50 µM) stood at 0.136.
On to “MAP7D1_Q3KQU3_373_SASASPLTPCSVTR (UniProt Q3KQU3)”, for which the “probe-labelled cysteine peptide fold change” value runs as follows: (10 µM) -0.024; (50 µM) -0.274.
Regarding “LZTS1_Q9Y250_450_GLELEVCENELQR (UniProt Q9Y250)”, the “probe-labelled cysteine peptide fold change” value is, setting by setting: (10 µM) 0.203; (50 µM) 0.42.
The corresponding values for “MACF1_Q9UPN3_5309_DCDVQGLEHDMEEINAR (UniProt Q9UPN3)” are 0.136 and -0.0387.
“MAST3_O60307_285_LLECLEFDPEEFYHLLEAAEGHAR (UniProt O60307)”: the “probe-labelled cysteine peptide fold change” value is 0.418 (10 µM) and 0.335 (50 µM).
With “MAP7D1_Q3KQU3_251_CSVSAVNLPK (UniProt Q3KQU3)”, the “probe-labelled cysteine peptide fold change” value was -0.00301 (10 µM) and -0.0811 (50 µM).
“LUC7L_Q9NQ29_97_ERDLFFELDAMDHLESFIAECDRR (UniProt Q9NQ29)”: the “probe-labelled cysteine peptide fold change” value is, setting by setting: (10 µM) -0.0216; (50 µM) 0.000413.
Turning to MBD1_Q9UIS9_350_RMDCGR (UniProt Q9UIS9), the “probe-labelled cysteine peptide fold change” value runs as follows: (10 µM) 0.0388; (50 µM) 0.0219.
In the case of “MAGI3_Q5TCQ9_1279_AGSGQDQCR (UniProt Q5TCQ9)”, the “probe-labelled cysteine peptide fold change” value was -0.339 (10 µM) and 0.053 (50 µM).
The corresponding values for “MATR3_P43243_293+296_GYPHLCSICDLPVHSNK (UniProt P43243)” are -0.198 and -0.0671.
Turning to “MAP2K4_P45985_246_LCDFGISGQLVDSIAK (UniProt P45985)”, the “probe-labelled cysteine peptide fold change” value is -0.087 (10 µM) and 0.0237 (50 µM).
“M6PR_P20645_145_RAVVMISCNR (UniProt P20645)”: the “probe-labelled cysteine peptide fold change” value is -0.0955 (10 µM) and -0.0915 (50 µM).
Take “MAP1S_Q66K74_975_ALCYVISGQDQR (UniProt Q66K74)”: the “probe-labelled cysteine peptide fold change” value runs as follows: (10 µM) -0.0635; (50 µM) 0.0166.
For “LYST_Q99698_3677_SPVTAVSASETSGDIATVCDSAGGGSDLR (UniProt Q99698)”, the “probe-labelled cysteine peptide fold change” value was 0.304 (10 µM) and -0.00375 (50 µM).
Turning to “MAN2C1_Q9NTJ4_871_WMDLSEHGFGLALLNDCK (UniProt Q9NTJ4)”, the “probe-labelled cysteine peptide fold change” value (10 µM) stood at 0.38 and the “probe-labelled cysteine peptide fold change” value (50 µM) is 0.327.
For “MANBA_O00462_213_IEAYNICHLNYFTFSPIYDK (UniProt O00462)”, in that order: 0.219 and 0.00413.
For “LYAR_Q9NX58_6_VFFTCNACGESVK (UniProt Q9NX58)”, in that order: -0.0304 and -0.0338.
“LY75_O60449_597_AVTFSNWNFLEPASPGGCVAMSTGK (UniProt O60449)”: the “probe-labelled cysteine peptide fold change” value reads like this: (10 µM) -0.491; (50 µM) -0.356.
For the target “MAN2A2_P49641_382_INCPWK (UniProt P49641)”, the “probe-labelled cysteine peptide fold change” value came to 0.0131 (10 µM) and 0.063 (50 µM).
“MAPK3_P27361_82_KISPFEHQTYCQR (UniProt P27361)”: the “probe-labelled cysteine peptide fold change” value is 0.0969 (10 µM) and -0.075 (50 µM).
